Results are given in words; binding and its absence hold for the method and conditions named. In cells and extracts the contact can be indirect. Here binding means that the protein was enriched with, or labelled near, the bait; the list need not be complete. One block for each binder: values may come before it.
Experiments:
[1] = biological target: T1, TMEM9 (mouse (endogenous in mouse brain)) (UniProt Q9CR23); assay: affinity purification with mass spectrometry; multi-epitope affinity purification (meAP-MS) from mouse brain membranes solubilized in ComplexioLyte 47; several antibodies against TMEM9 or TMEM9B on Protein A / Protein G magnetic beads, 3 h; IgG and target knockout controls
T1 sequence: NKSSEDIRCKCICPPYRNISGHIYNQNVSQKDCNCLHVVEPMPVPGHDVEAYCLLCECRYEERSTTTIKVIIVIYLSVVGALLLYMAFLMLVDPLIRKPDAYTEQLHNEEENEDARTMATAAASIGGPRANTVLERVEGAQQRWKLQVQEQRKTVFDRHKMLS

Protein sequences, listed by entry. Tags and fused reporters are not part of them. Residues count along the entry.
UniProt Q9JJR8, residues 35-199: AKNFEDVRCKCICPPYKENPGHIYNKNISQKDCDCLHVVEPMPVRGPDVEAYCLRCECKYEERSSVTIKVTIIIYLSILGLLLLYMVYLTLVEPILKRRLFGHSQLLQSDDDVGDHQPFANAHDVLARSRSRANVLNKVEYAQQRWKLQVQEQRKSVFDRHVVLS

[2] = biological target: TMEM9B (mouse (endogenous in mouse brain)) (UniProt Q9JJR8); assay: as above

binding [1]: binds
binding [2]: binds
B1: ClC-4 (protein, UniProt Q61418 1-747)
chain: MDFLEEPFPDVGTYEDFHTIDWLREKSRDTDRHRKITSKSKESIWEFIKSLLDAWSGWVVMLLIGLLAGTLAGVIDLAVDWMTDLKEGVCLSAFWYSHEQCCWTSNETTFEDRDKCPLWQKWSELLLSQSEGASAYILNYLMYILWALLFAFLAVSLVRVFAPYACGSGIPEIKTILSGFIIRGYLGKWTLLIKTVTLVLVVSSGLSLGKEGPLVHVACCCGNFFSSLFSKYSKNEGKRREVLSAAAAAGVSVAFGAPIGGVLFSLEEVSYYFPLKTLWRSFFAALVAAFTLRSINPFGNSRLVLFYVEYHTPWYMAELFPFILLGVFGGLWGTLFTRCNIAWCRRRKTTRLGRYPVLEVIAVTAVTAIVAYPNPYTRQSTSELISELFNDCGALESSQLCDYINDPNMTRPVDDIPDRPAGVGVYTAMWQLALALIFKIVITIFTFGMKIPSGLFIPSMAVGAMAGRMVGIGVEQLAYHHHDWIIFRNWCRPGADCVTPGLYAMVGAAACLGGVTRMTVSLVVIMFELTGGLEYIVPLMAAAVTSKWVADAFGKEGIYEAHIHLNGYPFLDVKDEFTHRTLATDVMRPRRGEPPLSVLTQDSMTVEDVETLIKETDYNGFPVLVSRDSERLIGFAQRRELILAIKNARQRQEGIVSNSIMYFTEEPPELPANSPHPLKLRRILNLSPFTVTDHTPMETVVDIFRKLGLRQCLVTRSGRLLGIITKKDVLRHMAQMANQDPESIMFN

binding [2]: binds
B2: ClC-3 (protein, UniProt P51791 1-818)
chain: MESEQLFHRGYYRNSYNSITSASSDEELLDGAGAIMDFQTSEDDNLLDGDTAAGTHYTMTNGGSINSSTHLLDLLDEPIPGVGTYDDFHTIDWVREKCKDRERHRRINSKKKESAWEMTKSLYDAWSGWLVVTLTGLASGALAGLIDIAADWMTDLKEGICLSALWYNHEQCCWGSNETTFEERDKCPQWKTWAELIIGQAEGPGSYIMNYIMYIFWALSFAFLAVSLVKVFAPYACGSGIPEIKTILSGFIIRGYLGKWTLMIKTITLVLAVASGLSLGKEGPLVHVACCCGNIFSYLFPKYSTNEAKKREVLSAASAAGVSVAFGAPIGGVLFSLEEVSYYFPLKTLWRSFFAALVAAFVLRSINPFGNSRLVLFYVEYHTPWYLFELFPFILLGVFGGLWGAFFIRANIAWCRRRKSTKFGKYPVLEVIIVAAITAVIAFPNPYTRLNTSELIKELFTDCGPLESSSLCDYRNDMNASKIVDDIPDRPAGVGVYSAIWQLCLALIFKIIMTVFTFGIKVPSGLFIPSMAIGAIAGRIVGIAVEQLAYYHHDWFIFKEWCEVGADCITPGLYAMVGAAACLGGVTRMTVSLVVIVFELTGGLEYIVPLMAAVMTSKWVGDAFGREGIYEAHIRLNGYPFLDAKEEFTHTTLAADVMRPRRSDPPLAVLTQDNMTVDDIENMINETSYNGFPVIMSKESQRLVGFALRRDLTIAIESARKKQEGIVGSSRVCFAQHTPSLPAESPRPLKLRSILDMSPFTVTDHTPMEIVVDIFRKLGLRQCLVTHNGIVLGIITKKDILRHMAQTANQDPASIMFN

binding [1]: binds
binding [2]: binds
B3: ClC-5 (protein, UniProt Q9WVD4 1-816)
chain: MAMWQGAMDNRGFHQGSFSSFQSSSSDEDLMDIPGTAMDFSMRDDVPPLDREIEGNKSYNGGGIGSSNRVMDFLEEPIPGVGTYDDFNTIDWVREKSRDRDRHREITNKSKESTWALIHSVSDAFSGWLLMLLIGLLSGSLAGLIDISAHWMTDLKEGICTGGFWFNHEHCCWNSEHVTFEHRDKCPEWNSWAQLIINTDQGAFAYIVNYFMYVLWALLFAFLAVSLVKAFAPYACGSGIPEIKTILSGFIIRGYLGKWTLVIKTITLVLAVSSGLSLGKEGPLVHVACCCGNILCHCFNKYRKNEAKRREVLSAAAAAGVSVAFGAPIGGVLFSLEEVSYYFPLKTLWRSFFAALVAAFTLRSINPFGNSRLVLFYVEFHTPWHLFELVPFIVLGIFGGLWGALFIRTNIAWCRKRKTTQLGKYPVVEVLIVTAITAILAFPNEYTRMSTSELISELFNDCGLLDSSKLCDYENHFNTSKGGELPDRPAGVGIYSAMWQLALTLILKIVITIFTFGMKIPSGLFIPSMAVGAIAGRLLGVGMEQLAYYHHDWGIFNSWCSQGADCITPGLYAMVGAAACLGGVTRMTVSLVVIMFELTGGLEYIVPLMAAAMTSKWVADALGREGIYDAHIRLNGYPFLEAKEEFAHKTLAMDVMKPRRNDPLLTVLTQDSMTVEDVETIISETTYSGFPVVVSRESQRLVGFVLRRDLIISIENARKKQDGVVSTSIIYFTEHSPPMPPYTPPTLKLRNILDLSPFTVTDLTPMEIVVDIFRKLGLRQCLVTHNGRLLGIITKKDVLKHIAQMANQDPDSILFN
